Experimental data taken from the supplement of paper PMC6411743.
± gives the standard deviation of the averaged measurements. Only a part is listed here, and it is no random draw.

Protein sequences, listed by entry. Tags and fused reporters are not part of them. Lines headed by an entry give the natural chain unless they say otherwise; changes in a name come on top.
UniProt O00244: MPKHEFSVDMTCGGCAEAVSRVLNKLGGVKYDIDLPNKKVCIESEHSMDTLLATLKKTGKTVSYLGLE
UniProt P68366, whole entry: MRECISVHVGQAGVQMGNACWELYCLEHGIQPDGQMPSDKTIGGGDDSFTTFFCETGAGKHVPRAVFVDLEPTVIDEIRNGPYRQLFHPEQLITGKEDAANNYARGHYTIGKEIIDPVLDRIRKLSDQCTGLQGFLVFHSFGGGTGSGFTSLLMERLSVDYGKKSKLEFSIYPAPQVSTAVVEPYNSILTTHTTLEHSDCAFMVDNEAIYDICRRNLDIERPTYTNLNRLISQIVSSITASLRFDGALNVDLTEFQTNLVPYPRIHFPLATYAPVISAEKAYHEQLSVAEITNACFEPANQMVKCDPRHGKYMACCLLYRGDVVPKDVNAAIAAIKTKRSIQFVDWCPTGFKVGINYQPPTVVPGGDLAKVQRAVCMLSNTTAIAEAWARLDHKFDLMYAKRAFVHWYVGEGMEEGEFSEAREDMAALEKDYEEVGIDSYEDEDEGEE
UniProt Q15257: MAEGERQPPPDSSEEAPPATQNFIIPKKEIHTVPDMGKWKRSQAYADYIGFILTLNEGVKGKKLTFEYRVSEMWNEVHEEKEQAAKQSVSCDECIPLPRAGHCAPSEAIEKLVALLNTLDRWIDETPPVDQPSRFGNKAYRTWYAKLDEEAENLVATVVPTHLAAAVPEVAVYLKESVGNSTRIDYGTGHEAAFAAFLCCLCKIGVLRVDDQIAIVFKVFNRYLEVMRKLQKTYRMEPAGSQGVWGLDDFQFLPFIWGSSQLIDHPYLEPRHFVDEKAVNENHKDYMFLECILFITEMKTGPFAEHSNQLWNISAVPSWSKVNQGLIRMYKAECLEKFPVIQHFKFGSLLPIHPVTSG
UniProt Q8N3C7: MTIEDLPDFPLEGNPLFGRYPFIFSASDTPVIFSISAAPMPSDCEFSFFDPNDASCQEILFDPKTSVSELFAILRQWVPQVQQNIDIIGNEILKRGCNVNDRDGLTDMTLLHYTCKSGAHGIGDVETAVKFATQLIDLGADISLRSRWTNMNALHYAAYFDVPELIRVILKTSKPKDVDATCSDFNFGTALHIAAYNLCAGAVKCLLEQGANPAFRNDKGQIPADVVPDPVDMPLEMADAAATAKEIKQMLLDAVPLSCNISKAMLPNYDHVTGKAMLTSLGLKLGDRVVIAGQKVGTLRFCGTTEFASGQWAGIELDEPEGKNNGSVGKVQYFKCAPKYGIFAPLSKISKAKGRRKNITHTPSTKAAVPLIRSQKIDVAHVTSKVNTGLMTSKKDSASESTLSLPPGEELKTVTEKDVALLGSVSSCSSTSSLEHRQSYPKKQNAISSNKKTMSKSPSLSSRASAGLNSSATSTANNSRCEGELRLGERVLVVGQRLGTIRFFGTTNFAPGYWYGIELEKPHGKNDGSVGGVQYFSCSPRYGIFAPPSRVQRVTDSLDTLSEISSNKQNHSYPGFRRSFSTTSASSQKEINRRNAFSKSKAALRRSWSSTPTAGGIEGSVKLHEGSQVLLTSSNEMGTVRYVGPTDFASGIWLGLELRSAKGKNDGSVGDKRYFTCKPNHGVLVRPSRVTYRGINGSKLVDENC
UniProt Q12979: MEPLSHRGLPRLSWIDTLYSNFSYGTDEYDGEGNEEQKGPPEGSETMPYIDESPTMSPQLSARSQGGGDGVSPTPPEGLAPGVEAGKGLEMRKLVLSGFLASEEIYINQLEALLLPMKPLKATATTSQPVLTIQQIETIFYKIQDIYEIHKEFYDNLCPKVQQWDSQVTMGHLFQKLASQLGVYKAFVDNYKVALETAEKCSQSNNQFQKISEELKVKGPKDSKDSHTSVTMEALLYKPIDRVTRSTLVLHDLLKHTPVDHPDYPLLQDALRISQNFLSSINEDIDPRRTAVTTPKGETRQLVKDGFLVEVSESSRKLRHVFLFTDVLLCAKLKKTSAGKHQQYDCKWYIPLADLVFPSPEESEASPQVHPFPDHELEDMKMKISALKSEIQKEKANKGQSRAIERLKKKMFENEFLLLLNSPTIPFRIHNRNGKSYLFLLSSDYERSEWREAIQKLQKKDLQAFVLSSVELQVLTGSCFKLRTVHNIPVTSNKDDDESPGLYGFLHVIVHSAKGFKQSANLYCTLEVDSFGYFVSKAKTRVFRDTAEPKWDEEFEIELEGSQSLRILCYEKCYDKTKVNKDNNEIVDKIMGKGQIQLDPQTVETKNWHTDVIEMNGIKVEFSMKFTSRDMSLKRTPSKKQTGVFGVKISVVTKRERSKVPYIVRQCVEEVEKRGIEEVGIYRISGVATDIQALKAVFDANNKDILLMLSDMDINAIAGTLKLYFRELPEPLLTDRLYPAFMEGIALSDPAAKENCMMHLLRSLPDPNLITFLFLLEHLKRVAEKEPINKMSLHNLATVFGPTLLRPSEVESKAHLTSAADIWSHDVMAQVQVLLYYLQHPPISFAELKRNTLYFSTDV
UniProt P61619, whole entry: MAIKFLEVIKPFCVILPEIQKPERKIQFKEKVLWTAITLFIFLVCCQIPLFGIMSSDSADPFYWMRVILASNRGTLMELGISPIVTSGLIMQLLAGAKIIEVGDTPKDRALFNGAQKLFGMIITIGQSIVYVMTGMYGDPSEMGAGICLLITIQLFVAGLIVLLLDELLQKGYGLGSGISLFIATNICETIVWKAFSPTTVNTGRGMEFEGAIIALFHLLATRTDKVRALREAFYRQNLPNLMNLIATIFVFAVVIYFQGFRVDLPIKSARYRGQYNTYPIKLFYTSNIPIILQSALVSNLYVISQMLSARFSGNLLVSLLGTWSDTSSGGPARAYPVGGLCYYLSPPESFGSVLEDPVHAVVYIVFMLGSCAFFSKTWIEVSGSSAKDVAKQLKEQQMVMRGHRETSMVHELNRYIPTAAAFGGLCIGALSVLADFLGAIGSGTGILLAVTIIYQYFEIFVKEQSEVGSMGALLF
UniProt P07602: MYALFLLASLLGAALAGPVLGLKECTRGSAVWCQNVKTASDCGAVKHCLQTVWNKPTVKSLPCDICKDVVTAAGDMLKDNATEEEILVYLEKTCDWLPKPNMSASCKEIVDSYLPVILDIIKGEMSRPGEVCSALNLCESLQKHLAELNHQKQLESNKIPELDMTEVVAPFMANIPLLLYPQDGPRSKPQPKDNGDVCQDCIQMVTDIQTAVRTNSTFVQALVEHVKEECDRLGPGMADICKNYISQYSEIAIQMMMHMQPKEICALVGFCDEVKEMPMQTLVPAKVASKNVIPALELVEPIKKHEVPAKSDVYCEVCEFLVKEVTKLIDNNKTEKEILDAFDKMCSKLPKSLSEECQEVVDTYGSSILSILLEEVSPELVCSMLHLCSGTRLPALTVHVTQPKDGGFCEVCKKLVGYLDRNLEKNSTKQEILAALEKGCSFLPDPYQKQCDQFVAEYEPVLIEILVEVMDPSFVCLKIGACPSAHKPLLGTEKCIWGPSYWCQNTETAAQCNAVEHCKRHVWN
UniProt P62873, whole entry: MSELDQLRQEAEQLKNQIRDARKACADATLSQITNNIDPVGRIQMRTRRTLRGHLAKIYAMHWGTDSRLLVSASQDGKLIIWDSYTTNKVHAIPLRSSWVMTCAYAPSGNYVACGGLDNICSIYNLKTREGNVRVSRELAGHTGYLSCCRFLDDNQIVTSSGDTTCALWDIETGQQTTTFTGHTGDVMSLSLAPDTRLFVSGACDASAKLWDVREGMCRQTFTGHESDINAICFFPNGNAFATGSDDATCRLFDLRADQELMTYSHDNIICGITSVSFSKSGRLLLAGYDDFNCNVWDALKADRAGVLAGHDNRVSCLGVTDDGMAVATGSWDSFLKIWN
UniProt P51965: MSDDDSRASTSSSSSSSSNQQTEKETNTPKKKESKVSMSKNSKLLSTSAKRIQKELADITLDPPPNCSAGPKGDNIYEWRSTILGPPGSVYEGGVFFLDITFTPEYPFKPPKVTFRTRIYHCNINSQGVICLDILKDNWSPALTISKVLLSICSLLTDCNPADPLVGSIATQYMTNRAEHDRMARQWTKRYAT
UniProt Q14919: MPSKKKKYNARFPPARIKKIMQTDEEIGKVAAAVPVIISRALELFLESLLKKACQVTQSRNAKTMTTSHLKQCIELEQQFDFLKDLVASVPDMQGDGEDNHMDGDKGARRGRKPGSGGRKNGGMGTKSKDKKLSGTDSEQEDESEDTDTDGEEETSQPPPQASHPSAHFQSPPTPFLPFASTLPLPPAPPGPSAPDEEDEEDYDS
UniProt Q9H6H4: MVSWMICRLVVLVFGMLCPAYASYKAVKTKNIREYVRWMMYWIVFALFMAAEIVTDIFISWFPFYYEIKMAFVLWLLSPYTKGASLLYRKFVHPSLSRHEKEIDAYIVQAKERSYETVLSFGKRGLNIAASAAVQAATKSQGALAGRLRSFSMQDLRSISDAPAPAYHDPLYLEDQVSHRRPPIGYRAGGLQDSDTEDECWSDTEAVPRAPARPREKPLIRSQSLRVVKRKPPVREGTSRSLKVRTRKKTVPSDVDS
UniProt Q8NCN5: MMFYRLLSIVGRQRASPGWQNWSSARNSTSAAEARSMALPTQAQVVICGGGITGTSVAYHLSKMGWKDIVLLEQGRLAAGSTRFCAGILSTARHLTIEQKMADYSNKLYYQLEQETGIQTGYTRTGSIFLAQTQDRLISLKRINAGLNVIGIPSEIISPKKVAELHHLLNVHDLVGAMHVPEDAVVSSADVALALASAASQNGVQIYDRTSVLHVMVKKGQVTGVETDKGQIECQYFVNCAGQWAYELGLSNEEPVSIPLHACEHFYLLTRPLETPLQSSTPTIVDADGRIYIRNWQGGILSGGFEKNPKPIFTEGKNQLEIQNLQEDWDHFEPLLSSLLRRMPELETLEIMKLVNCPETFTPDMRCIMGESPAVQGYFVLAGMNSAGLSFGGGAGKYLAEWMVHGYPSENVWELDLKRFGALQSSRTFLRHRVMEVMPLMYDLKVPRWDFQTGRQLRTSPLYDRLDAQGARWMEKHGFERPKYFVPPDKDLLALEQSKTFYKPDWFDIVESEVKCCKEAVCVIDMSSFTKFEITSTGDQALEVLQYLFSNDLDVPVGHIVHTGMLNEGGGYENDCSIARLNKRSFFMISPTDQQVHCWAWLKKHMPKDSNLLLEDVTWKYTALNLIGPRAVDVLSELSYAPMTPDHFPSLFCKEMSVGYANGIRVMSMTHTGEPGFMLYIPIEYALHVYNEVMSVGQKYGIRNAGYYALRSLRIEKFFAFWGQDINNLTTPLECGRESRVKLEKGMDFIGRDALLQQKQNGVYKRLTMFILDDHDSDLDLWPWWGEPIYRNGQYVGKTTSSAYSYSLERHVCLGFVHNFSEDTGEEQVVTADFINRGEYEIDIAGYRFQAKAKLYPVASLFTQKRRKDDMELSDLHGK
UniProt P99999: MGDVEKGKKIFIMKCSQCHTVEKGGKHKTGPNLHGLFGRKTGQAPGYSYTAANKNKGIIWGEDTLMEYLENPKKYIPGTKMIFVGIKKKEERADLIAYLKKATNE
UniProt P24864, whole entry: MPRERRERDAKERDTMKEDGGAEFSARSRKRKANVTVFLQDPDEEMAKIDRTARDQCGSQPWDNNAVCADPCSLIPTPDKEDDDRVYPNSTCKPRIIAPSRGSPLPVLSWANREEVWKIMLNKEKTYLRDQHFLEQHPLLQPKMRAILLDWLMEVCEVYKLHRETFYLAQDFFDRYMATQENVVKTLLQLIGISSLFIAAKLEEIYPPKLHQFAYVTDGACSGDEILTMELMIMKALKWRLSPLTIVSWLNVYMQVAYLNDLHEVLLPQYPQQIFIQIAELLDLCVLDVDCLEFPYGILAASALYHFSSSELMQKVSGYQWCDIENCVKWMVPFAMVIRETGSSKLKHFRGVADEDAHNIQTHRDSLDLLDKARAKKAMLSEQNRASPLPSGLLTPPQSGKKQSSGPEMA
UniProt A8MPS7: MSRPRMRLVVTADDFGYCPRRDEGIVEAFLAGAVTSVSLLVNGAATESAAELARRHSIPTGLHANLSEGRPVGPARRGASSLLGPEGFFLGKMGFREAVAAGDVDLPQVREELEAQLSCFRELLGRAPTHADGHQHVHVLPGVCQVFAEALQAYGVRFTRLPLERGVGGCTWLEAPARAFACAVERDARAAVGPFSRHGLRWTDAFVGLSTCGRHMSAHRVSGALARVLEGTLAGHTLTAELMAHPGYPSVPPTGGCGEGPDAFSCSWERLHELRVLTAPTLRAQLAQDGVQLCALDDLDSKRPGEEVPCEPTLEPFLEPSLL
UniProt O75718: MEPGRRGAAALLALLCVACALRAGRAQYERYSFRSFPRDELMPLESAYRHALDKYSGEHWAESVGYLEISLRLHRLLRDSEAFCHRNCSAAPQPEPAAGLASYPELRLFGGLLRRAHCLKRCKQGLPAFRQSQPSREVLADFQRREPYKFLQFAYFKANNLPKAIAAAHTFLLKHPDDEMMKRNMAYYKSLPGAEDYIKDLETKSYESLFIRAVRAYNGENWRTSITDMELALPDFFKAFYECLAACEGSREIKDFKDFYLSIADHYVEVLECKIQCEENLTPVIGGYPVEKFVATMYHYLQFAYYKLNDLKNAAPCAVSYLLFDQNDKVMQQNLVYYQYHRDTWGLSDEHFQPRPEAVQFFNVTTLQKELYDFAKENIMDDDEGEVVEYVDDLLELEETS

Compound: Nc1ncnc2c1ncn2[C@@H]1O[C@H](COP(=O)(O)OP(=O)(O)NP(=O)(O)O)[C@@H](O)[C@H]1O [adenylyl imidodiphosphate]
Test: NP40-soluble protein abundance relative to vehicle (solubility fold change) (ratio); higher = more soluble protein in presence of AMP-PNP
Method in brief: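 In three independent experiments, Jurkat crude lysate made by Dounce homogenisation was treated for 10 min at room temperature and then 3 min at 37 °C with eight concentrations ranging from 0.1 to 10 mM. It was then solubilised with 0.8% NP40 plus benzonase for 60 min at 4 °C and ultracentrifuged. The supernatant was TMT-labelled for LC-MS/MS, and each value is the fold change against the detergent-processed vehicle for the same replicate, using vsn-normalised intensities.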

Target	NP40-soluble protein abundance (concentration: 1mM)	NP40-soluble protein abundance (concentration: 2mM)	NP40-soluble protein abundance (concentration: 4mM)	NP40-soluble protein abundance (concentration: 6mM)	NP40-soluble protein abundance (concentration: 8mM)	NP40-soluble protein abundance (concentration: 10mM)
B3KS98 and related entries (UniProt O15372)	1.02 ± 0.028	1 ± 0.048	1.06 ± 0.072	1.15 ± 0.077	1.2 ± 0.073	1.27 ± 0.12
C9JF71 and related entries (UniProt Q8TBF5)	1.01 ± 0.013	0.992 ± 0.026	0.989 ± 0.027	1.01 ± 0.026	1 ± 0.015	0.9939 ± 0.0047
E5RGN3 and related entries (UniProt O00244)	0.961 ± 0.05	1.11 ± 0.094	0.959 ± 0.09	0.934 ± 0.053	0.901 ± 0.059	0.917 ± 0.034
B7Z6D5 and related entries (UniProt Q96GQ7)	1.03 ± 0.019	1.01 ± 0.034	1.06 ± 0.045	1.05 ± 0.026	1.08 ± 0.061	1.11 ± 0.05
C9JJQ8 and related entries (UniProt P68366)	0.9628 ± 0.0011	1.04 ± 0.036	0.965 ± 0.023	0.955 ± 0.035	0.946 ± 0.037	0.9706 ± 0.0034
E5RGT2 and related entries (UniProt Q96MH6)	0.992 ± 0.035	0.942 ± 0.076	0.999 ± 0.027	0.969 ± 0.046	1.01 ± 0.07	0.991 ± 0.049
LIPT2 (UniProt A6NK58)	0.961 ± 0.02	0.976 ± 0.014	0.958 ± 0.029	0.993 ± 0.027	0.994 ± 0.016	0.994 ± 0.022
C9J2Y9 and related entries (UniProt P30876)	0.97 ± 0.011	0.887 ± 0.1	0.941 ± 0.042	0.933 ± 0.051	0.956 ± 0.065	0.919 ± 0.094
A6PVN5 and related entries (UniProt Q15257)	0.982 ± 0.05	0.97 ± 0.035	0.965 ± 0.024	1.05 ± 0.091	1.05 ± 0.081	1.02 ± 0.059
ZNF316 (UniProt A6NFI3)	1.01 ± 0.046	1.01 ± 0.058	0.975 ± 0.076	0.971 ± 0.051	0.974 ± 0.046	0.98 ± 0.06
A6NFX8 and related entries (UniProt Q9UKK9)	0.974 ± 0.024	0.91 ± 0.049	0.964 ± 0.034	0.989 ± 0.024	1.03 ± 0.041	0.982 ± 0.03
C9JQV3 and related entries (UniProt Q8N1F8)	0.971 ± 0.018	0.999 ± 0.036	1.02 ± 0.016	1.01 ± 0.015	1.03 ± 0.02	1.04 ± 0.034
C9JRJ5 and related entries (UniProt Q9UGP4)	1.07 ± 0.047	1.13 ± 0.12	1.049 ± 0.0098	1.01 ± 0.048	1.01 ± 0.033	1.03 ± 0.035
B5MCH3 and related entries (UniProt Q8N3C7)	0.968 ± 0.019	0.981 ± 0.051	0.96 ± 0.013	0.952 ± 0.053	0.996 ± 0.054	0.9791 ± 0.0056
B7Z683 and related entries (UniProt Q12979)	0.981 ± 0.016	0.956 ± 0.061	0.99 ± 0.013	0.931 ± 0.014	0.974 ± 0.049	0.942 ± 0.045
GTPBP10 (UniProt A4D1E9)	1.02 ± 0.0089	1.05 ± 0.044	1.05 ± 0.031	1.05 ± 0.023	1.077 ± 0.0048	1.1 ± 0.019
B2R5W2 and related entries (UniProt P07910)	0.981 ± 0.1	1 ± 0.022	0.945 ± 0.14	0.947 ± 0.14	0.927 ± 0.093	0.953 ± 0.13
D6REX3 and related entries (UniProt O94979)	0.98 ± 0.029	0.951 ± 0.039	0.967 ± 0.036	0.98 ± 0.015	0.971 ± 0.024	0.96 ± 0.048
A8K7Q2 and related entries (UniProt P11142)	1.04 ± 0.037	1.06 ± 0.014	1.02 ± 0.036	1 ± 0.05	1 ± 0.034	1.01 ± 0.043

Target	NP40-soluble protein abundance (concentration: 1mM)	NP40-soluble protein abundance (concentration: 2mM)	NP40-soluble protein abundance (concentration: 4mM)	NP40-soluble protein abundance (concentration: 6mM)	NP40-soluble protein abundance (concentration: 8mM)	NP40-soluble protein abundance (concentration: 10mM)
D4PHA4 and related entries (UniProt Q86WP2)	0.999 ± 0.011	1.03 ± 0.026	0.992 ± 0.02	1.04 ± 0.1	1.01 ± 0.063	1.05 ± 0.054
B4E3Q4 and related entries (UniProt Q9NZK5)	0.982 ± 0.022	0.941 ± 0.012	0.9915 ± 0.0066	0.982 ± 0.057	1.03 ± 0.044	0.969 ± 0.013
B4E0E3 and related entries (UniProt Q9H6X4)	0.989 ± 0.014	1.01 ± 0.033	0.989 ± 0.04	1.01 ± 0.025	0.9708 ± 0.0014	0.989 ± 0.023
UniProt A8MWY0 and related entries	0.9848 ± 0.0075	1.01 ± 0.024	0.973 ± 0.012	0.96842 ± 0.00077	0.9736 ± 0.0021	0.96598 ± 0.00015
D6RAJ6 and related entries (UniProt Q9UKT5)	1.01 ± 0.035	0.996 ± 0.032	0.986 ± 0.024	0.975 ± 0.026	0.983 ± 0.035	0.981 ± 0.045
D6RF48 and related entries (UniProt Q9P2W9)	1.01 ± 0.026	1.03 ± 0.032	0.97 ± 0.021	0.973 ± 0.059	0.956 ± 0.034	0.954 ± 0.015
C9J7Z4 and related entries (UniProt Q8NCE0)	0.984 ± 0.028	1.003 ± 0.0083	1.01 ± 0.021	0.998 ± 0.038	0.9859 ± 0.0091	0.979 ± 0.029
A2RUF3 and related entries (UniProt O75044)	0.9952 ± 0.0018	1.05 ± 0.047	1.02 ± 0.035	0.986 ± 0.015	0.972 ± 0.014	1.01 ± 0.03
D3YTB1 and related entries (UniProt P62910)	1.01 ± 0.047	1.02 ± 0.062	0.995 ± 0.092	0.978 ± 0.059	0.835 ± 0.11	0.993 ± 0.093
B4DR61 and related entries (UniProt P61619)	0.941 ± 0.075	0.868 ± 0.047	0.97 ± 0.048	0.99 ± 0.079	1.04 ± 0.056	0.947 ± 0.058
UniProt A2RUC4	0.9987 ± 0.0083	0.9827 ± 0.0017	0.969 ± 0.019	0.993 ± 0.013	0.9737 ± 0.0039	0.949 ± 0.015
C9JIZ6 and related entries (UniProt P07602)	0.999 ± 0.042	1.1 ± 0.07	0.984 ± 0.045	0.966 ± 0.018	0.922 ± 0.024	0.943 ± 0.067
B3KVK2 and related entries (UniProt P62873)	0.978 ± 0.015	0.885 ± 0.06	0.885 ± 0.032	0.9272 ± 0.0078	0.9053 ± 0.0052	0.8791 ± 0.0035
B7Z9C2 and related entries (UniProt P55209)	1.03 ± 0.05	1.01 ± 0.045	1.03 ± 0.052	1.01 ± 0.015	1.02 ± 0.025	1.02 ± 0.024
C9J2P0 and related entries (UniProt P51965)	0.972 ± 0.012	0.9512 ± 0.0055	0.952 ± 0.029	0.9728 ± 0.0083	0.967 ± 0.038	0.958 ± 0.05
C9JCC6 and related entries (UniProt Q14919)	0.971 ± 0.14	1.04 ± 0.048	0.951 ± 0.098	0.903 ± 0.12	0.922 ± 0.08	0.903 ± 0.12
E5RGS2 and related entries (UniProt Q9H6H4)	0.997 ± 0.041	0.997 ± 0.03	0.99 ± 0.03	0.997 ± 0.053	1.02 ± 0.011	1.01 ± 0.017
B1AK44 and related entries (UniProt Q9UI95)	0.982 ± 0.016	0.99 ± 0.015	1.02 ± 0.02	0.996 ± 0.013	0.988 ± 0.011	0.995 ± 0.0082
E2QRN4 and related entries (UniProt Q5BKZ1)	1.01 ± 0.13	1.06 ± 0.093	1.03 ± 0.13	1.03 ± 0.14	1.07 ± 0.15	1.12 ± 0.17

Whole records, quoted from the list.
B4DR61 and related entries (UniProt P61619) in the list: NP40-soluble protein abundance (concentration: 1mM): 0.941 ± 0.075; NP40-soluble protein abundance (concentration: 2mM): 0.868 ± 0.047; NP40-soluble protein abundance (concentration: 4mM): 0.97 ± 0.048; NP40-soluble protein abundance (concentration: 6mM): 0.99 ± 0.079; NP40-soluble protein abundance (concentration: 8mM): 1.04 ± 0.056; NP40-soluble protein abundance (concentration: 10mM): 0.947 ± 0.058
D6RAJ6 and related entries (UniProt Q9UKT5) in the list: NP40-soluble protein abundance (concentration: 1mM): 1.01 ± 0.035; NP40-soluble protein abundance (concentration: 2mM): 0.996 ± 0.032; NP40-soluble protein abundance (concentration: 4mM): 0.986 ± 0.024; NP40-soluble protein abundance (concentration: 6mM): 0.975 ± 0.026; NP40-soluble protein abundance (concentration: 8mM): 0.983 ± 0.035; NP40-soluble protein abundance (concentration: 10mM): 0.981 ± 0.045
C9JIZ6 and related entries (UniProt P07602) in the list: NP40-soluble protein abundance (concentration: 1mM): 0.999 ± 0.042; NP40-soluble protein abundance (concentration: 2mM): 1.1 ± 0.07; NP40-soluble protein abundance (concentration: 4mM): 0.984 ± 0.045; NP40-soluble protein abundance (concentration: 6mM): 0.966 ± 0.018; NP40-soluble protein abundance (concentration: 8mM): 0.922 ± 0.024; NP40-soluble protein abundance (concentration: 10mM): 0.943 ± 0.067
D6RF48 and related entries (UniProt Q9P2W9) in the list: NP40-soluble protein abundance (concentration: 1mM): 1.01 ± 0.026; NP40-soluble protein abundance (concentration: 2mM): 1.03 ± 0.032; NP40-soluble protein abundance (concentration: 4mM): 0.97 ± 0.021; NP40-soluble protein abundance (concentration: 6mM): 0.973 ± 0.059; NP40-soluble protein abundance (concentration: 8mM): 0.956 ± 0.034; NP40-soluble protein abundance (concentration: 10mM): 0.954 ± 0.015

Next records

Target	NP40-soluble protein abundance (concentration: 1mM)	NP40-soluble protein abundance (concentration: 2mM)	NP40-soluble protein abundance (concentration: 4mM)	NP40-soluble protein abundance (concentration: 6mM)	NP40-soluble protein abundance (concentration: 8mM)	NP40-soluble protein abundance (concentration: 10mM)
B4DK77 and related entries (UniProt Q9H6K4)	1 ± 0.035	1.03 ± 0.11	0.993 ± 0.047	1.01 ± 0.046	1.04 ± 0.031	1 ± 0.1
B7ZAX5 and related entries (UniProt Q01415)	0.985 ± 0.027	0.971 ± 0.07	1.03 ± 0.024	1.03 ± 0.072	1.04 ± 0.081	1.04 ± 0.015
A8MT40 and related entries (UniProt Q8NCN5)	0.956 ± 0.026	0.861 ± 0.11	0.95 ± 0.038	0.885 ± 0.033	0.924 ± 0.039	0.878 ± 0.021
B1AKN5 and related entries (UniProt Q12857)	1.05 ± 0.066	1.04 ± 0.08	1.04 ± 0.078	1.07 ± 0.066	1.06 ± 0.097	1.1 ± 0.087
CCDC88B (UniProt A6NC98)	1.04 ± 0.018	1.06 ± 0.067	1.05 ± 0.046	0.99434 ± 0.00087	0.979 ± 0.036	1 ± 0.046
UniProt A6QL63 and related entries	0.988 ± 0.04	0.97 ± 0.079	0.964 ± 0.049	0.953 ± 0.065	0.968 ± 0.048	0.946 ± 0.059
C9JKQ7 and related entries (UniProt P22102)	1 ± 0.018	0.954 ± 0.024	0.978 ± 0.021	1.01 ± 0.034	1.02 ± 0.037	0.9834 ± 0.0084
A8MXP9 and related entries (UniProt P43243)	1.03 ± 0.033	1.07 ± 0.016	1.05 ± 0.016	1.07 ± 0.042	1.08 ± 0.025	1.1 ± 0.028
C9JFR7 and related entries (UniProt P99999)	0.932 ± 0.042	1.01 ± 0.091	0.942 ± 0.045	1.03 ± 0.14	1.02 ± 0.055	1.03 ± 0.11
C9J2U0 and related entries (UniProt P24864)	0.913 ± 0.0092	0.822 ± 0.076	0.935 ± 0.011	0.936 ± 0.032	0.9933 ± 0.0062	0.953 ± 0.07
C9J712 and related entries (UniProt P35080)	1.01 ± 0.053	1.08 ± 0.1	1.02 ± 0.093	1.16 ± 0.11	1.16 ± 0.091	1.21 ± 0.066
UniProt A2VDJ0 and related entries	0.97 ± 0.013	1.02 ± 0.024	1.01 ± 0.011	1 ± 0.059	0.997 ± 0.033	0.9811 ± 0.0073
D3DTX6 and related entries (UniProt Q96SB3)	1.04 ± 0.04	1.13 ± 0.16	1.03 ± 0.024	1.05 ± 0.083	1.04 ± 0.12	1.1 ± 0.1
C9JYJ8 and related entries (UniProt Q9BWE0)	0.991 ± 0.041	1.01 ± 0.043	1.02 ± 0.032	0.996 ± 0.026	1.01 ± 0.038	1.03 ± 0.06
D6R9C6 and related entries (UniProt P27707)	1.01 ± 0.017	0.972 ± 0.03	0.998 ± 0.02	1.05 ± 0.083	1.06 ± 0.056	1.05 ± 0.04
YDJC (UniProt A8MPS7)	0.977 ± 0.0078	0.982 ± 0.024	0.993 ± 0.016	1 ± 0.0058	1.003 ± 0.0052	0.9793 ± 0.0049
C9JP16 and related entries (UniProt O75718)	1.01 ± 0.025	1.05 ± 0.0041	1.07 ± 0.051	1.02 ± 0.029	1.07 ± 0.034	1.13 ± 0.041
D6RHU3 and related entries (UniProt P55212)	0.968 ± 0.039	0.865 ± 0.11	0.936 ± 0.032	0.914 ± 0.047	0.949 ± 0.016	0.885 ± 0.043
B5MDE0 and related entries (UniProt Q96AA3)	0.987 ± 0.012	0.928 ± 0.036	0.956 ± 0.025	0.958 ± 0.043	0.979 ± 0.048	0.944 ± 0.025
